The values that follow come from the supplement of paper PMC12889115.

The assay deals with Salmonella enterica serovar Typhimurium SL1344. Kind of assay: bacterial growth OD600 after 18 h with compound and polymyxin B; higher = more bacterial growth (less inhibition). As to conditions: 50 µM, Mueller-Hinton broth.

This is one part of the list. These are raw signals, not scaled to a control.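 First-pass screen: polymyxin B was added at a level that permeabilizes the Salmonella outer membrane while sparing the inner membrane. DMSO wells, with and without polymyxin B, defined maximum growth. Because plates differed from one another, each plate's data were ranked separately and the compounds with the lowest OD600 were carried forward as hits.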

On to `CCOC(=O)C1CCCCN1C(=O)CC1(c2cccc(C(F)(F)F)c2)CC(=O)N(C2CC2)C1=O` (stereo not drawn), for which the “bacterial growth OD600” value (polymyxin B 0.75 µg/mL) is 0.611.
Take `Cc1ccccc1-n1ncc(C(C)NC(=O)CSc2ncccn2)c1C` (stereo not drawn): the “bacterial growth OD600” value (polymyxin B 1 µg/mL) came to 0.881.
With `O=C(CC1(c2cccc(C(F)(F)F)c2)CC(=O)N(C2CC2)C1=O)N1CCCCC1c1nccs1` (stereo not drawn), the “bacterial growth OD600” value (polymyxin B 0.75 µg/mL) came out at 0.676.
On to `CCCCN(C)C(=O)c1coc(COc2cccc(F)c2F)n1`, for which the “bacterial growth OD600” value (polymyxin B 1 µg/mL) was 0.655.
Regarding `COc1ccc2cc(C(C)NC3CCN(c4ccc(C(=O)NCc5cccnc5)cc4)CC3)ccc2c1` (stereo not drawn), the “bacterial growth OD600” value (polymyxin B 0.75 µg/mL) was 0.008.
On the same count and under the same terms, in the case of `CCN1CCN(C2CCN(C(=O)C3CCN(c4nc(C)c5cc(C(C)C)ccc5n4)CC3)CC2)CC1` it was 0.784; in that of `CN(C)C(=O)CCC(=O)N1CCc2[nH]nc(-c3ccc(Cl)cc3)c2C1`, 0.731.
Regarding `COc1ccc(OC)c(CN2CCC(n3nccc3NC(=O)C(C)(C)C)CC2)c1`, the “bacterial growth OD600” value (polymyxin B 1 µg/mL) came to 0.955.
